Results are given in words; binding and its absence hold for the method and conditions named. In cells and extracts the contact can be indirect. Some entries that bind do so weakly or less than the wild type.
Target: FLAG-Smad3 (UniProt P84022)
Assay: co-IP; lysates of HBECs co-transfected with Sox2-V5 and FLAG-Smad3, NETN buffer (20 mM Tris pH 8.0, 100 mM NaCl, 1 mM EDTA, 0.5% NP-40), 4°C; precipitated with anti-FLAG M2 affinity gel or with rabbit anti-Sox2 on Protein A/G beads (normal rabbit IgG as control); blots with anti-FLAG-HRP and anti-V5-HRP

Sequences of proteins named here, by UniProt entry; tags and fusion partners are left off.
UniProt P84022: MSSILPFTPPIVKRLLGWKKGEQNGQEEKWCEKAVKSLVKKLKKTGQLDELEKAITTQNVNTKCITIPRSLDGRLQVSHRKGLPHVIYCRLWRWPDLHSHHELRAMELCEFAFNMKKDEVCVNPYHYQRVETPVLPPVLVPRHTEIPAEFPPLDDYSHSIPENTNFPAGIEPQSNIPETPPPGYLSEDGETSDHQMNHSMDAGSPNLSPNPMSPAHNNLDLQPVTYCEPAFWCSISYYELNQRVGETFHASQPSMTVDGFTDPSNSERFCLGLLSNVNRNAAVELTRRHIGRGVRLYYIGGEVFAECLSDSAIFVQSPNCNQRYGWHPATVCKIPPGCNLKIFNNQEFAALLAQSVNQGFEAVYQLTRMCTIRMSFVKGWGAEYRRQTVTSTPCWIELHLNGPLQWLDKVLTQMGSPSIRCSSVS
UniProt P48432: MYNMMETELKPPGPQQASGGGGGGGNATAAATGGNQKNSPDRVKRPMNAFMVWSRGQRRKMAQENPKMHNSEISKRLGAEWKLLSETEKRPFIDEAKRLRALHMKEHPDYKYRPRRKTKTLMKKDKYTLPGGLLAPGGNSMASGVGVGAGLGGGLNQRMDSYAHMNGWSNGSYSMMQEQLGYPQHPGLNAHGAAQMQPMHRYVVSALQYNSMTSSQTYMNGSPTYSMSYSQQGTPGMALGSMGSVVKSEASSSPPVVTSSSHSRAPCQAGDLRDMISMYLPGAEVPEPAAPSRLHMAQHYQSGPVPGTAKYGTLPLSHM

binding: binds
Substance: Sox2-V5 (from UniProt P48432 1-319)

Source: PMC2788414
